From publication PMC12311796

Key:
[1] = biological target: BRD4 N-terminal tandem bromodomain fragment (BD1-BD2) (Homo sapiens) (UniProt O60885); assay: MST; conditions: two MST values given for peptide and G4 in order; MST: PBS, 0.05% Tween-20, 22 C; recombinant protein; residues 49-460; folded or branched DNA
[2] = biological target: BRD4 N-terminal tandem bromodomain fragment (BD1-BD2) (Homo sapiens) (UniProt O60885); assay: SPR; conditions: 4 eq PDS; SPR: 10 mM HEPES pH 7.4, 150 mM NaCl, 50 uM EDTA, 0.005% P20, 24 C; recombinant protein; residues 49-460

| Sequence | Kd [1] | binding result [2] |
| --- | --- | --- |
| GGGAGGGAGGGAGGG [G4 (SE G4)] | 10 µM | – |
| ATCACACTTGGCAGGGAGGGAGGGAGGGATGCAGCTGATCA (double strand) [dsG4] | – | no binding |

For some assays here: Negatives hold for the conditions tested. For some assays here: Construct, isoform or probe ends are uncertain for at least one entry.
